Reference: publication PMC4514670
No constants are given. Whether binding was seen depends on the method and setting. In cells and extracts the contact can be indirect. Some results given as binding are weak or reduced against the parent protein; the word gives no strength. For part of these data: Where a sequence is shown, tags or fusion partners need not be part of it.

Amino acid sequences for entries named in this document (tags omitted). A change or cut given only in a name is not applied to a line headed by its entry.
UniProt Q9WUF3: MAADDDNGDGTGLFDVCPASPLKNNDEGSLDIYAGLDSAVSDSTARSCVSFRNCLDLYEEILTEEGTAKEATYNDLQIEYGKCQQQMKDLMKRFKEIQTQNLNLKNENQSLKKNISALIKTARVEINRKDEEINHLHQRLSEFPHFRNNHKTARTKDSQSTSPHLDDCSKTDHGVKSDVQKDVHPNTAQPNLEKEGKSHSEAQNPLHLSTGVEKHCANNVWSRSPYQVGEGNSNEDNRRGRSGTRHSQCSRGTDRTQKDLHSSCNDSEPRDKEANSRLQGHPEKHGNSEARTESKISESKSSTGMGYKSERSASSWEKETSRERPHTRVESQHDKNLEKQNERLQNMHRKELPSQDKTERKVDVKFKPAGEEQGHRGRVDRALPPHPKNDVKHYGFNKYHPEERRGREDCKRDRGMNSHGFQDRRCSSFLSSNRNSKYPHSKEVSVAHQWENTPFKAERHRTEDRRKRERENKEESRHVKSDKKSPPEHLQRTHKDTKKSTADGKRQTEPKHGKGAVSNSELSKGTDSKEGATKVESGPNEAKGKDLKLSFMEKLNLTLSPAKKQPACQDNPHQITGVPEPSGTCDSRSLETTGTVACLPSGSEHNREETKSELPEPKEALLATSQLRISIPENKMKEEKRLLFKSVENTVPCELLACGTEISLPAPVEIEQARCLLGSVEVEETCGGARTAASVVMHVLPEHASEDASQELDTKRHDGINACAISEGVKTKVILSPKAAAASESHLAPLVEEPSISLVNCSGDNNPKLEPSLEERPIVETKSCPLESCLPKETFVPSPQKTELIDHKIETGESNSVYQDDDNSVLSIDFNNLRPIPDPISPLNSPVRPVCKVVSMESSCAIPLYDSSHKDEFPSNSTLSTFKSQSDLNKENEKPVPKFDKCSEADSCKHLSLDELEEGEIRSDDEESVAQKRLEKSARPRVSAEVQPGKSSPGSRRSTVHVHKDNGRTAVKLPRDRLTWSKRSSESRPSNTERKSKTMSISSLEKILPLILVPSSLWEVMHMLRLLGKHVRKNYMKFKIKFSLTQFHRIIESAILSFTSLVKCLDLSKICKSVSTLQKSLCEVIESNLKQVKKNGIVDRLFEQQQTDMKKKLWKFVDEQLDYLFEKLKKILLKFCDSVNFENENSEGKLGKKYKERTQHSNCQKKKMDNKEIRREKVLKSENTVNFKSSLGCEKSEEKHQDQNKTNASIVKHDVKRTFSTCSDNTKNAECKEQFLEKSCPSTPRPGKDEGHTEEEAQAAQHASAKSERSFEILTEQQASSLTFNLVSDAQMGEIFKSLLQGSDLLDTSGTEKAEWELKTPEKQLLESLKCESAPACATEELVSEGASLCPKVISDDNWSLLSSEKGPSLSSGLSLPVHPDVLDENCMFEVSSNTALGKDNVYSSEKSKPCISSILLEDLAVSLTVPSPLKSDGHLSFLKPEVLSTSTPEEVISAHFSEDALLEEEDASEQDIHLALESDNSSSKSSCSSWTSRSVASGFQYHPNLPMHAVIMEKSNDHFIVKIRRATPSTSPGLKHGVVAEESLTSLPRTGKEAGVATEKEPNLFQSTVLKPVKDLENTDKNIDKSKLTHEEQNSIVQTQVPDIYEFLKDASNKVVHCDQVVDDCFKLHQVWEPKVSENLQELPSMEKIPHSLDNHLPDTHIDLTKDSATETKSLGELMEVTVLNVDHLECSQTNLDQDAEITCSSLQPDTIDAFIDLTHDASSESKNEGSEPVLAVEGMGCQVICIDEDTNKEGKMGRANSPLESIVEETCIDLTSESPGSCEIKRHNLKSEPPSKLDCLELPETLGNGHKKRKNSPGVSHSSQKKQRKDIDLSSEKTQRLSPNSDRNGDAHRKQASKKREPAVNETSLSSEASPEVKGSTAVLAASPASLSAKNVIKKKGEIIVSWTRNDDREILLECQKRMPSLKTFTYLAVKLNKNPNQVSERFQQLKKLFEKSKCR
UniProt P15806: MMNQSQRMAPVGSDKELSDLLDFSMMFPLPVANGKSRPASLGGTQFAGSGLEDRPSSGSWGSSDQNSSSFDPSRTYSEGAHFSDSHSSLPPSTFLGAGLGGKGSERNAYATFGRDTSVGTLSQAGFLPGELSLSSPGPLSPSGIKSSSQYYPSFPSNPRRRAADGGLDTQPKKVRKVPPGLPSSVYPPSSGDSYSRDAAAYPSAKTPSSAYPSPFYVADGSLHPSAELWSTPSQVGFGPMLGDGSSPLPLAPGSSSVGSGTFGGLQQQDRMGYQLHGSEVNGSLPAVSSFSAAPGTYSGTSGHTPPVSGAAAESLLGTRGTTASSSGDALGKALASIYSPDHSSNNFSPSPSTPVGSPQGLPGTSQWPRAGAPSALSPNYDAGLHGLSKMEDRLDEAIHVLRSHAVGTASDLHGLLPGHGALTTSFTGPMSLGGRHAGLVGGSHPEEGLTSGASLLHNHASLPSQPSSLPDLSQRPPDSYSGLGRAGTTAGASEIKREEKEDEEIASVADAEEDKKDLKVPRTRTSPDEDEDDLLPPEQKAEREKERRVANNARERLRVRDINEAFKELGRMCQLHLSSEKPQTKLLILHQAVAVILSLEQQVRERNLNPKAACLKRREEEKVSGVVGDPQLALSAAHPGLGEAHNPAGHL

Legend:
[1] = target: Flag-FLASH (full-length mouse FLASH) (mouse) (UniProt Q9WUF3); assay: co-IP; Flag-FLASH (full length) co-expressed with Myc-tagged E12 or E47 constructs; co-transfected MC lysate by the legend (the methods name CHO-K1 cells); anti-FLAG monoclonal antibody, immunoblot
HA-tagged Id3 = target: T1, HA-tagged Id3 (UniProt P41133); assay: co-IP; CHO-K1 cells co-transfected with Myc-tagged E12-bHLH and HA-tagged Id3 or ΔFLASH; lysate immunoprecipitated with anti-HA antibody, blotted with anti-Myc antibody; 50 mmol/L Tris-HCl pH 7.4, 150 mM NaCl, 1% NP-40, 0.5% deoxycholate
T1 sequence: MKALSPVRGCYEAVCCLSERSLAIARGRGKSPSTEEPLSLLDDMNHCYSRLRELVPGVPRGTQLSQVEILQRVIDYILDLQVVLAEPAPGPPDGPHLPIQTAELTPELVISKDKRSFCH

| binding [1] | binding (HA-tagged Id3) | Substance |
| --- | --- | --- |
| binds | binds | Myc-tagged E12-bHLH (from UniProt P15806 505-651) (domain or fragment) |
| binds |  | Myc-tagged full-length mouse E12 (from UniProt P15806 1-651) |
